Measured values: publication PMC10333506
For at least one entry, the source does not settle the construct or the ends of the probe. For part of these data: The comparison behind a weaker result is the experiment's own reference, which may not be listed here.

Protein sequences, listed by entry. Tags and fused reporters are not part of them. Lines headed by an entry give the natural chain unless they say otherwise; changes in a name come on top.
UniProt Q8S307: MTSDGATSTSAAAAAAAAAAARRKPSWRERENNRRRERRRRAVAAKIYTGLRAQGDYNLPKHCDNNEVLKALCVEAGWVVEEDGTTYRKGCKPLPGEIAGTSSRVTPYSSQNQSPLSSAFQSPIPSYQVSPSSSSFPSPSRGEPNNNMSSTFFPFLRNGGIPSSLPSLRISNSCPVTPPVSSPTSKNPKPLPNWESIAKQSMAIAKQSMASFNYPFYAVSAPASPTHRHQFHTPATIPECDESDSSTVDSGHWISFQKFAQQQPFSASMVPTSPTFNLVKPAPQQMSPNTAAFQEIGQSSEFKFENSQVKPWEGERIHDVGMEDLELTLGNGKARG

Experiments:
MBP-BZR1 [1] = biological target: MBP-BZR1 (UniProt Q8S307); assay: competition EMSA; conditions: EMSA as described by Zhao et al. (2021), recombinant protein, protein details: MBP
MBP-BZR1 [2] = biological target: MBP-BZR1 (UniProt Q8S307); assay: EMSA; conditions: EMSA as described by Zhao et al. (2021); recombinant protein; protein details: MBP; label: 5' biotin on both strands

“AATTACGTCAATCGTGTGCACCTTTCTTTA (double strand) [BRRE Probe, unlabeled (PLT1 promoter)]”: binds (MBP-BZR1 [1]; unlabeled competitor against biotin BRRE probe, binding weakened with increasing competitor).

“AATTACGTCAATCGTGTGCACCTTTCTTTA (double strand) [BRRE Biotin Probe (PLT1 promoter)]”: binds (MBP-BZR1 [2]).

“AATTACGTCAATAAAAAACACCTTTCTTTA (double strand) [m-Probe (BRRE to AAAAAA), unlabeled]”: binds more weakly (MBP-BZR1 [1]; unlabeled mutant competitor against biotin BRRE probe, significantly reduced ability to compete).
